No constants are given. Whether binding was seen depends on the method and setting. Some entries that bind do so weakly or less than the wild type.
Biological target: Human CLDN18.2 (human) (UniProt P56856)
Test: FACS on SP2/0-hCLDN18.2 cells (FIG. 12)

Chains of the proteins cited; added tags and fusions are not shown. Lines headed by an entry give the natural chain unless they say otherwise; changes in a name come on top. A line that says so, or that is headed by a name, gives the form on record, which may keep a tag or linker.
Human CLDN18.2 (P56856, form named): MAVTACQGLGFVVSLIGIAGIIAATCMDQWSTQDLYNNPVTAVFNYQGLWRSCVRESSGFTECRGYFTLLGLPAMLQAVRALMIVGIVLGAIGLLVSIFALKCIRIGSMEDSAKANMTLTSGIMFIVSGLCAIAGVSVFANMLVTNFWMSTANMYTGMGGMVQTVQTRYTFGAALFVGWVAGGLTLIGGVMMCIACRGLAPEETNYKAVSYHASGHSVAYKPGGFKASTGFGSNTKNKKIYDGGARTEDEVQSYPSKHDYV

B1: 5E6-scFv (CLDN18.2 single-chain antibody) (scFv)
scFv: QVQLVQSGAEVKKPGASVKVSCKASGYTFTNYVMNWVRQAPGQRLEWMGYINPYNDGTKYNERFKGRVTITRDTSASTAYMELSSLRSEDTAVYYCARLYRGNAMDYWGQGTLVTVSSASTGGGGSGGGGSGGGGSDIVMTQSPDSLAVSLGERATINCKSSQSLLASGNQKNYLTWYQQKPGQPPKLLIYWASTRESGVPDRFSGSGSGTDFTLTISSLQAEDVAVYYCQNVYIYPFTFGQGTKLEIKR
binding: binds

From patent US20240182562A1
